Experimental data reported in paper PMC7417771 (Frontiers in Chemistry, 2020).

Assay: general procedure: Fmoc solid-phase peptide synthesis; HMPB linker on aminomethyl-polystyrene resin; HATU/DIPEA
Conditions: whole synthesis, scale 0.051 mmol

lipobactin 3
isolated mass: 15.1 mg | isolated yield: 32.7% yield
